Library screening results

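Whole-cell assay for inhibitors of Mycobacterium tuberculosis growth, labelled Cornell in the record; the read-out is not stated. The concentration is filed as 10 mM, unlikely as a test dose, so the dose is not known. Higher means stronger inhibition (inferred from two other growth screens of the library). Size under these conditions: about 53,000 compounds, about 900 of them at 50% or above in at least one test.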

The filed quantity is “Percent Effect” (%). The controls that fix the scale are not given in the record; negative values are as filed. Compounds were drawn at random from those tested, without regard to their results.

* CN(Cc1cnn(C)c1)S(=O)(=O)N1CCc2ccccc2C1 | 5.23%
* CN(C(=O)Nc1cccnc1)C1CCN(c2ccc(Cl)cc2)CC1 | 9.997%
* CCc1cnc2c(c1NCc1ccncc1)c(=O)n(C)c(=O)n2C | 2.532%
* [H][C@]12CCN[C@@]1([H])CN(C(=O)CC1CC1)C2 | -7.056%
* CC(C)N(C)Cc1ncn2c1CN(C(=O)C1CCCO1)CCC2 (stereo not shown) | 17.96%
* O=C(O)C(F)(F)F.[H][C@@]12CCN(S(=O)(=O)c3ccc(F)cc3)C[C@]1([H])[C@@H](CN(C)C)OC2 | 1.565%
* CC(=O)Nc1ccc(/C=C/c2ncc(C(=O)O)s2)cc1 | -4.131%
* CCNC(=O)N1CCC(=Cc2ccccc2)CC1 | 31.8%
* O=C(O)C(F)(F)F.O=C(O)C(F)(F)F.c1csc(CN2CCC3(CC2)CCN(CC2CCOCC2)C3)n1 | 1.09%
* CCS(=O)(=O)N1CCc2cc(C(=O)NC)c(N(C)C)nc2CC1 | 4.249%
* CN(C)c1nc(NCc2ccccc2Cn2cccn2)ncc1F | -28.47%
* O=C(c1cc(Cl)c2c(c1)OCCCO2)N(CC1CCOC1)C1CC1 (stereo not shown) | 25.27%
* Cc1oncc1C(=O)NCC(c1ccccc1Cl)N1CCOCC1 (stereo not shown) | -34.94%
* Cc1cccc(NC(=O)CN(C)C(=O)c2scnc2C)n1 | -9.366%
* Cc1cc(C)n(CC2CN(CC(=O)N3CCNC3=O)CCO2)n1 (stereo not shown) | -9.233%
* Cc1nc(CN2CCC3(CCCN(Cc4cccnc4)C3)C2=O)cs1.O=C(O)C(F)(F)F.O=C(O)C(F)(F)F.O=C(O)C(F)(F)F (stereo not shown) | -29.95%
* CN1CCC2(CC1)CN(C(=O)c1ccncc1)Cc1ccccc12 | 11.29%
* CN(C)C(=O)CN1CCC2(CCCN(Cc3ccoc3)C2)C1=O (stereo not shown) | 13.33%
* CS(=O)(=O)Cc1nc(CNc2ccc(F)c(F)c2)cs1 | -5.54%
* CSCc1cc(F)ccc1CNC(=O)N1CCOCC1 | -39.15%
* Cc1noc(COCC(=O)Nc2ccc(Br)c(C)n2)n1 | 11.41%
* COc1ccc(CNC(=O)NCc2c(C)cc(C)[nH]c2=O)cc1 | 25.08%
* CCOCC(O)CN1CCN(C(=O)C2CC2)CC1 (stereo not shown) | 23.32%
* CC(C)N(CC(N)=O)Cc1csc(COc2ccc(F)cc2)n1 | 10.14%
* CN(C)S(=O)(=O)N1CCCCCC1c1cc(-c2ccc(F)cc2)no1 (stereo not shown) | 73.32%
* Cc1nccc(CNS(=O)(=O)N2CCCC2c2ccc(C)o2)n1 (stereo not shown) | 14%
* CN1CCN(c2nc(-c3cnn(C)c3)cs2)CC1 | 19.22%
* COC(=O)C(C)(C)NC(=O)c1cnc(Cc2ccc(F)cc2)s1 | -14.97%
* Cc1nc(N(C)C)nc2c1COCC21CCN(C(=O)NC(C)C)C1 (stereo not shown) | -4.452%
* Cc1ccsc1C(=O)N1CCc2ncc(CN3CCCC3)n2CC1.O=C(O)C(F)(F)F | -6.085%
* CCCn1[nH]cc/c1=N\C(=O)CN1CCCC1c1cccn1C (stereo not shown) | 9.308%
* CC(=O)N1CCCN(c2nccc(-c3cn(C)nc3C)n2)CC1 | 6.57%
* CN1CCC(N(C)CCC(=O)N2CCN(Cc3cccc(F)c3)CC2)C1 (stereo not shown) | 1.479%
* CC(C)CNC(=O)CNC(=O)Nc1cccc(Cl)c1-n1cccn1 | -7.825%
* Cc1cc(C)n(C2CN(C(=O)Cn3c(=O)c(C)nc4ccccc43)C2)n1 | -25.5%
* CN1CC(=O)N(c2cccc(F)c2)CC12CCN(CCO)C2.O=C(O)C(F)(F)F.O=C(O)C(F)(F)F (stereo not shown) | 14.11%
* O=C1CCC2(CCN(Cc3cscn3)CC2)CN1[C@H]1CC[C@H](O)CC1 | -4.239%
* O=C(CN1CCN(c2ccnc3c(F)ccc(F)c23)CC1)N1CCCC1 | -32.15%
* NC(=O)CCN(CC(=O)NCc1cccs1)c1ccc(F)cc1 | 17.2%
* [H][C@]12CCN(C(=O)CCC(C)C)CC[C@@]1([H])S(=O)(=O)CCN2S(C)(=O)=O | 27.39%
* O=C(O)C(F)(F)F.[H][C@@]12CCN(Cc3cc(C)on3)C[C@]1([H])O[C@@H](C(=O)N1CCC(C)CC1)C2 | 4.75%
* N#Cc1ccc(CCC(=O)N2CCCC(n3cncn3)C2)cc1 (stereo not shown) | 3.871%
* Cc1cccc(-n2nnnc2C2(NCc3ccco3)CCCCC2)c1 | 3.488%
* Cc1cc(N(Cc2ccon2)S(C)(=O)=O)ccc1Br | -23.74%
* CCN1C(=O)C(C#N)=C(C)/C(=C/C2=Cc3ccccc3OC2)C1=O | 13.84%
* O=C(C1CC1)N1CCC2(COCc3cnc(N4CCOCC4)nc32)C1 (stereo not shown) | 21.59%
* O=C(CSC1=NS(=O)(=O)c2cc(F)ccc2N1)Nc1cccc(Cl)c1 | 25.95%
* CCC(C(=O)NCc1cccnc1)N(c1cccc(C)c1)S(C)(=O)=O (stereo not shown) | -8.974%
* O=C1CC2(CCCCN2C(=O)c2cccs2)CN1CC1CC1 (stereo not shown) | 9.486%
* CSc1ccccc1CN1CCn2nc(CNC(=O)N(C)C)cc2C1 | -16.34%
* O=C(O)C(F)(F)F.O=C(O)C(F)(F)F.O=C(O)c1cc2c(nc1-c1cncnc1)CCN(C1CCOC1)CC2 (stereo not shown) | 10.61%
* CC(c1cccnc1)N(C)C(=O)NCCOc1ccc(C#N)cc1 (stereo not shown) | 12.58%
* O=C(c1ccc2[nH]cnc2c1)N1CCC(Oc2cccnc2)CC1 | 6.965%
* O=c1c(Cc2ccc(Cl)cc2Cl)c(O)ccn1CC1CC1 | 42.69%
* Cc1csc(N2CCCN(C(=O)c3c(C)noc3C)CC2)n1 | -26.8%
* CN(C)S(=O)(=O)c1ccc(-c2nc(C#N)c(NC3CCCCC3)o2)o1 | -4.017%

Once more, the final 4:

{"structure": "O=C(c1ccc2[nH]cnc2c1)N1CCC(Oc2cccnc2)CC1", "percent effect": 6.965}
{"structure": "O=c1c(Cc2ccc(Cl)cc2Cl)c(O)ccn1CC1CC1", "percent effect": 42.69}
{"structure": "Cc1csc(N2CCCN(C(=O)c3c(C)noc3C)CC2)n1", "percent effect": -26.8}
{"structure": "CN(C)S(=O)(=O)c1ccc(-c2nc(C#N)c(NC3CCCCC3)o2)o1", "percent effect": -4.017}

Data taken from ChEMBL document CHEMBL3988442, “University of Dundee, Small-Polar-MMV Screening Library” (2021).